Laboratory results as given in the supplement of paper PMC5407854, “Inhibitor of ppGalNAc-T3-mediated O-glycosylation blocks cancer cell invasiveness and lowers FGF23 levels” (eLife, 2017).
The other results are listed elsewhere or left out. Most values lie at the level of the controls, where differences are scatter.

Tests used:
[1] = tested on: ppGalNAc-T3 sensor; experiment: T3 sensor activation Q score (MG/GFP ratio z-score vs DMSO controls) (SD units); higher = more sensor activation (inhibition of ppGalNAc-T3 glycosylation); details: HEK293 sensor cells; 10 µM; 6 h
Method: (§1)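 Cells were treated with compound at 10 uM for 6 h, then MG/GFP ratio was read by flow cytometry (10,000 cells per well, duplicate wells). Q = (R - R_neg)/SD_neg relative to DMSO vehicle controls; the signal rises when the glycosyltransferase is inhibited.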

[2] = tested on: ppGalNAc-T2 sensor; experiment: T2 sensor activation Q score (MG/GFP ratio z-score vs DMSO controls) (SD units); higher = more sensor activation (inhibition of ppGalNAc-T2 glycosylation); details: HEK293 sensor cells; 10 µM; 6 h
Method: as §1

Structure (SMILES): Cc1cc([N+](=O)[O-])ccc1NC(=O)c1ccc(C(C)(C)C)cc1
- T3 sensor activation Q score [1]: 0.94
- T2 sensor activation Q score [2]: -0.87

Structure (SMILES): Cc1cc(C)c2ccc(NN)nc2c1O
- T3 sensor activation Q score [1]: 1.2
- T2 sensor activation Q score [2]: 0.005

Structure (SMILES): Cc1ccc(S(=O)(=O)NCCO)cc1
- T3 sensor activation Q score [1]: -0.45
- T2 sensor activation Q score [2]: -0.25

Structure (SMILES): Cc1ccc(NS(C)(=O)=O)c(C)c1
- T3 sensor activation Q score [1]: -0.04
- T2 sensor activation Q score [2]: -0.135

Structure (SMILES): CC(=O)c1ccc(NC2=C(N3CCCCC3)C(=O)c3ccccc3C2=O)cc1
- T3 sensor activation Q score [1]: -0.87
- T2 sensor activation Q score [2]: -1.7

Structure (SMILES): COc1ccc(-c2csc(Nc3ccc(C(=O)O)cc3)n2)cc1
- T3 sensor activation Q score [1]: -0.44
- T2 sensor activation Q score [2]: -0.49

Structure (SMILES): Cc1cccc(C(=O)Nc2ccc(Cl)c(Cl)c2)c1
- T3 sensor activation Q score [1]: -0.48
- T2 sensor activation Q score [2]: -0.11

Structure (SMILES): O=C(O)c1cc(S(=O)(=O)N2CCCCC2)ccc1Cl
- T3 sensor activation Q score [1]: 0.61
- T2 sensor activation Q score [2]: -1.12

Structure (SMILES): CN(C)c1ccc(-c2nc3ccccc3o2)cc1
- T3 sensor activation Q score [1]: -0.535
- T2 sensor activation Q score [2]: -0.85

Structure (SMILES): CCOc1ccc(NC(=O)Nc2cccc(Cl)c2)cc1
- T3 sensor activation Q score [1]: -0.2
- T2 sensor activation Q score [2]: 0.84

Structure (SMILES): O=C1CCCc2nn(-c3ccccc3)nc21
- T3 sensor activation Q score [1]: 0.03
- T2 sensor activation Q score [2]: 0.09

Structure (SMILES): O=C(Nc1ccccc1Oc1ccccc1)C1CCCC1
- T3 sensor activation Q score [1]: -0.405
- T2 sensor activation Q score [2]: 0.32

Structure (SMILES): [O-][n+]1onc2c1CCc1nnccc1-2
- T3 sensor activation Q score [1]: -0.52
- T2 sensor activation Q score [2]: 0.165

Structure (SMILES): O=C1CCCc2c1nc(-c1ccccc1)n2O
- T3 sensor activation Q score [1]: -0.685
- T2 sensor activation Q score [2]: 0.055

Structure (SMILES): CC(=O)c1cc(F)c(N2CCN(C(=O)c3c(F)cccc3F)CC2)cc1C
- T3 sensor activation Q score [1]: -1.9
- T2 sensor activation Q score [2]: 0.25

Structure (SMILES): COc1ccc(OC)c(CN2CCC(N3CCCCC3)CC2)c1
- T3 sensor activation Q score [1]: 1.36
- T2 sensor activation Q score [2]: -1.67

Structure (SMILES): COc1ccccc1N1CCN(C(=O)c2cccs2)CC1
- T3 sensor activation Q score [1]: -0.09
- T2 sensor activation Q score [2]: -0.395

Structure (SMILES): CC=CC=CC(=O)Nc1c[nH]c(=O)[nH]c1=O
- T3 sensor activation Q score [1]: 0.11
- T2 sensor activation Q score [2]: 0.34

Structure (SMILES): CCCC(=O)Nc1cc2oc3ccccc3c2cc1OC
- T3 sensor activation Q score [1]: -0.285
- T2 sensor activation Q score [2]: -0.31

Structure (SMILES): CC(=O)Nc1ccc(S(=O)(=O)Nc2cccc(F)c2)cc1
- T3 sensor activation Q score [1]: 0.605
- T2 sensor activation Q score [2]: 2

Structure (SMILES): COc1ccc(CN2CCN(c3ccc([N+](=O)[O-])cc3)CC2)cc1O
- T3 sensor activation Q score [1]: 0.65
- T2 sensor activation Q score [2]: -0.04

Structure (SMILES): COc1ccccc1-c1ncnn1-c1cccc(Cl)c1C
- T3 sensor activation Q score [1]: -0.63
- T2 sensor activation Q score [2]: 1.01

Structure (SMILES): O=C(NCCCCc1ccccc1)c1ccc(Br)cc1
- T3 sensor activation Q score [1]: 0.465
- T2 sensor activation Q score [2]: -1.14

Structure (SMILES): CC(=O)N1CCN(c2ccc([N+](=O)[O-])cc2F)CC1
- T3 sensor activation Q score [1]: 0.645
- T2 sensor activation Q score [2]: 0.005

Structure (SMILES): CCOc1ccccc1NC(=O)c1ccccc1C
- T3 sensor activation Q score [1]: 1.49
- T2 sensor activation Q score [2]: -1.01

Structure (SMILES): COc1ccc(CNc2ccc3c(c2)CCC3)cc1
- T3 sensor activation Q score [1]: 0.21
- T2 sensor activation Q score [2]: -0.71

Structure (SMILES): O=S(=O)(Nc1cccc(O)c1)c1ccc(Cl)cc1
- T3 sensor activation Q score [1]: 0.17
- T2 sensor activation Q score [2]: 0.22

Structure (SMILES): COc1ccc(OC)c(CN2CCC(O)CC2)c1
- T3 sensor activation Q score [1]: 0.15
- T2 sensor activation Q score [2]: 0.155

Structure (SMILES): CCCCNc1ccc(C(=O)O)cc1
- T3 sensor activation Q score [1]: 0.325
- T2 sensor activation Q score [2]: 0.32

Structure (SMILES): O=C(c1cccc(S(=O)(=O)N2CCCCC2)c1)N1CCCCC1
- T3 sensor activation Q score [1]: -0.095
- T2 sensor activation Q score [2]: 2.02

Structure (SMILES): O=C(Nc1ccc(-c2ccccc2)cc1)c1ccco1
- T3 sensor activation Q score [1]: -1.43
- T2 sensor activation Q score [2]: -1.03

Structure (SMILES): O=C(O)C1CCCCC1C(=O)Nc1cccc(F)c1 (stereo unspecified)
- T3 sensor activation Q score [1]: -0.1
- T2 sensor activation Q score [2]: 0.875

Structure (SMILES): O=C1C(=O)N(CCO)C(c2ccccc2F)C1=C(O)c1ccccc1 (stereo unspecified)
- T3 sensor activation Q score [1]: -0.69
- T2 sensor activation Q score [2]: -0.27

Structure (SMILES): Cc1nnc2c(N3CCOCC3)nc3ccccc3n12
- T3 sensor activation Q score [1]: -0.59
- T2 sensor activation Q score [2]: -0.07

Structure (SMILES): CN1CCN(C2CC(=O)N(c3cc(Cl)cc(Cl)c3)C2=O)CC1 (stereo unspecified)
- T3 sensor activation Q score [1]: 0.355
- T2 sensor activation Q score [2]: -0.895

Structure (SMILES): O=C(c1ccc(Cl)cc1)n1cnc2ccccc21
- T3 sensor activation Q score [1]: -0.56
- T2 sensor activation Q score [2]: -0.29

Structure (SMILES): NC1C2CN3CCN(C2)CC1(Cc1ccccc1)C3 (stereo unspecified)
- T3 sensor activation Q score [1]: -0.05
- T2 sensor activation Q score [2]: 0

Structure (SMILES): O=C(Nc1ccc(-c2ccc([N+](=O)[O-])cc2)cc1)c1ccc(F)cc1
- T3 sensor activation Q score [1]: -0.02
- T2 sensor activation Q score [2]: 0.065
